According to article PMC9513677, “Systematic multi‐level analysis of an organelle proteome reveals new peroxisomal functions” (Molecular Systems Biology, 2022):
These are yes or no findings as the source states them, for the method shown. For some assays here: In cells and extracts the contact can be indirect. Some entries that bind do so weakly or less than the wild type. Where a sequence is shown, tags or fusion partners need not be part of it.

T1: Glr1 (glutathione reductase), yeast‐2‐hybrid bait (Saccharomyces cerevisiae) (UniProt P41921)
T1 sequence: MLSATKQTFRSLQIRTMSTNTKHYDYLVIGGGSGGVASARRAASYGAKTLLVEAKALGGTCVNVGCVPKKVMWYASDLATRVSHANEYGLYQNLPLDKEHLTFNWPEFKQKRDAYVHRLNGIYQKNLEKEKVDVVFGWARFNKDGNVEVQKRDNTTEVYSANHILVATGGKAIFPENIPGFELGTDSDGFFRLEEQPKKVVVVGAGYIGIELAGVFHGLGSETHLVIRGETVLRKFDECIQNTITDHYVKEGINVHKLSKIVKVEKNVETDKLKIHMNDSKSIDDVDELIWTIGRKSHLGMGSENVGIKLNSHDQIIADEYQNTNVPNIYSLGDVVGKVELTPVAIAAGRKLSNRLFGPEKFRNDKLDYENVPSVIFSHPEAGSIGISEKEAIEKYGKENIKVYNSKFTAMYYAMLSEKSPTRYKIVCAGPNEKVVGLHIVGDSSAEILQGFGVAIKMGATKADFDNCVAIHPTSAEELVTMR

T2: Flag‐Glr1 expressed in E. coli (pACYCDuet‐1) (Saccharomyces cerevisiae) (UniProt P41921)
T2 sequence: T1 sequence

B1: Pex5 full‐length, yeast‐2‐hybrid prey (receptor, UniProt P35056 1-612)
chain: MDVGSCSVGNNPLAQLHKHTQQNKSLQFNQKNNGRLNESPLQGTNKPGISEAFISNVNAISQENMANMQRFINGEPLIDDKRRMEIGPSSGRLPPFSNVHSLQTSANPTQIKGVNDISHWSQEFQGSNSIQNRNADTGNSEKAWQRGSTTASSRFQYPNTMMNNYAYASMNSLSGSRLQSPAFMNQQQSGRSKEGVNEQEQQPWTDQFEKLEKEVSENLDINDEIEKEENVSEVEQNKPETVEKEEGVYGDQYQSDFQEVWDSIHKDAEEVLPSELVNDDLNLGEDYLKYLGGRVNGNIEYAFQSNNEYFNNPNAYKIGCLLMENGAKLSEAALAFEAAVKEKPDHVDAWLRLGLVQTQNEKELNGISALEECLKLDPKNLEAMKTLAISYINEGYDMSAFTMLDKWAETKYPEIWSRIKQQDDKFQKEKGFTHIDMNAHITKQFLQLANNLSTIDPEIQLCLGLLFYTKDDFDKTIDCFESALRVNPNDELMWNRLGASLANSNRSEEAIQAYHRALQLKPSFVRARYNLAVSSMNIGCFKEAAGYLLSVLSMHEVNTNNKKGDVGSLLNTYNDTVIETLKRVFIAMNRDDLLQEVKPGMDLKRFKGEFSF
B2: Pex5 N′ domain (1–299), yeast‐2‐hybrid prey (domain or fragment, UniProt P35056 1-299)
chain: MDVGSCSVGNNPLAQLHKHTQQNKSLQFNQKNNGRLNESPLQGTNKPGISEAFISNVNAISQENMANMQRFINGEPLIDDKRRMEIGPSSGRLPPFSNVHSLQTSANPTQIKGVNDISHWSQEFQGSNSIQNRNADTGNSEKAWQRGSTTASSRFQYPNTMMNNYAYASMNSLSGSRLQSPAFMNQQQSGRSKEGVNEQEQQPWTDQFEKLEKEVSENLDINDEIEKEENVSEVEQNKPETVEKEEGVYGDQYQSDFQEVWDSIHKDAEEVLPSELVNDDLNLGEDYLKYLGGRVNGNI
B3: Full‐length yeast Pex5 expressed in E. coli (pET28) (receptor, UniProt P35056 1-612)
chain: B1 chain
B4: Pex5 N′ (1–312) expressed in E. coli (pET28) (domain or fragment, UniProt P35056 1-312)
chain: MDVGSCSVGNNPLAQLHKHTQQNKSLQFNQKNNGRLNESPLQGTNKPGISEAFISNVNAISQENMANMQRFINGEPLIDDKRRMEIGPSSGRLPPFSNVHSLQTSANPTQIKGVNDISHWSQEFQGSNSIQNRNADTGNSEKAWQRGSTTASSRFQYPNTMMNNYAYASMNSLSGSRLQSPAFMNQQQSGRSKEGVNEQEQQPWTDQFEKLEKEVSENLDINDEIEKEENVSEVEQNKPETVEKEEGVYGDQYQSDFQEVWDSIHKDAEEVLPSELVNDDLNLGEDYLKYLGGRVNGNIEYAFQSNNEYFNN
B5: Pex5 C′ (313–612) expressed in E. coli (pET28) (domain or fragment, UniProt P35056 313-612)
chain: PNAYKIGCLLMENGAKLSEAALAFEAAVKEKPDHVDAWLRLGLVQTQNEKELNGISALEECLKLDPKNLEAMKTLAISYINEGYDMSAFTMLDKWAETKYPEIWSRIKQQDDKFQKEKGFTHIDMNAHITKQFLQLANNLSTIDPEIQLCLGLLFYTKDDFDKTIDCFESALRVNPNDELMWNRLGASLANSNRSEEAIQAYHRALQLKPSFVRARYNLAVSSMNIGCFKEAAGYLLSVLSMHEVNTNNKKGDVGSLLNTYNDTVIETLKRVFIAMNRDDLLQEVKPGMDLKRFKGEFSF

Experiments:
[1] = target: T1, Glr1 (glutathione reductase), yeast‐2‐hybrid bait (Saccharomyces cerevisiae); experiment: two-hybrid; PJ69‐4A cells; prey on pPC86 (GAL4 activation domain), bait on pPC97 (GAL4 DNA-binding domain); growth on YNBG -trp-leu-his-ade and/or -trp-leu-his +5 mM 3-AT at 30°C
[2] = target: T2, Flag‐Glr1 expressed in E. coli (pACYCDuet‐1) (Saccharomyces cerevisiae); experiment: pull-down; Flag-Glr1 and Pex5 constructs expressed individually or together in E. coli; lysates in TBS; FLAG beads, elution with free FLAG peptide; blots with anti-DYKDDDDK and anti-polyHistidine

Row | Binder | binding [1] | binding [2]
1 | B1 | binds | –
2 | B2 | binds | –
3 | B3 | – | binds
4 | B4 | – | binds
5 | B5 | – | binds
